Data as given in PubChem BioAssay (NCATS).
“And” between values parts separate entries of the source, which are not always exact repeats. Equal entries are not always repeated. This is one part of the list. Further columns of the screen follow, without active or inactive calls. The list favours compounds with an active or inconclusive main result. For some assays here: Words in brackets tell the shape of the fitted curve; partial curves, single points and poor fits give uncertain potencies.

Assays:
[1] = qHTS assay for small molecule antagonists of peroxisome proliferator-activated receptor gamma signaling (AID 588537); conditions: HEK293 PPARg-UAS-bla, beta-lactamase ratio, antagonist mode; measured here: W460 blue channel
Outline: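 Antagonist mode, beta-lactamase reporter in HEK293; charcoal/dextran FBS 1%; 3000 cells/well, 37 C 6-6.5 h; cpd titration + rosiglitazone 50 nM final, 16 h 37 C; CCF4, 2 h RT; 460/530 nm; Hill fit → IC50, efficacy.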

[2] = qHTS assay for small molecule agonists of retinoid X receptor alpha signaling (AID 588544); conditions: HEK293T RXRa-UAS-bla, beta-lactamase reporter, 18 h; 530 nm emission
[3] = qHTS assay for small molecule antagonists of retinoid X receptor alpha signaling (AID 588546); conditions: HEK293T RXRa-UAS-bla, beta-lactamase ratio, antagonist mode; measured here: W530 green channel, cytotoxicity proxy;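 further: cells stimulated with 9-cis-retinoic acid as agonist; on the % scale 0 is the no-effect control and ±100 the full control effect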
Outline: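 Beta-lactamase reporter inhibition, read as CCF4 fluorescence ratio (ex 405, em 460/530 nm) after 2 h at RT. HEK293T UAS-bla cells, 2500/well, were stimulated with 9-cis-RA at 500 or 100 nM final alongside test compound for 18 h at 37 C.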

[4] = S16 Schwann cell PMP22 intronic element beta-lactamase assay (AID 624044); conditions: S16 rat Schwann cells, PMP22 element beta-lactamase FRET, 24 h
Outline: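 Rat S16 Schwann cells with beta-Lac driven by a PMP22 intronic element, compound-treated 24 h at 37 °C. LiveBLAzer FRET B/G read: 460 nm normalized to potassium clavulanate vs DMSO; 535 nm FRET as viability; concentration-effect curves classified.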

[5] = measured here: 460 nm blue channel

With `CCOP(=S)(OCC)SCCl` the AC50 [1] was 0.00126 µM [falling, full curve, poor fit], the max response [2] was 9.99% and the max response [3] was -14%.
In the case of `CCC(C)(NC(=O)c1cc(Cl)c(C)c(Cl)c1)C(=O)CCl` (stereo not given), the AC50 [1] is reported as 63.1 µM [falling, partial curve, poor fit], the max response [2] is reported as 37% and the max response [3] is reported as 9.98%.
In the case of `Oc1c(Br)c(Br)c(Br)c(Br)c1Br`, the AC50 [1] is reported as 12.6 µM [falling, full curve], the max response [2] is reported as 12.9% and the max response [3] is reported as 0.674%.
For `NS(=O)(=O)C(F)(F)C(F)(F)C(F)(F)C(F)(F)C(F)(F)C(F)(F)C(F)(F)C(F)(F)F`, the AC50 [1] was 50.1 µM [falling, partial curve, poor fit] and the max response [2] was -0.516%.
With `CCCN(CCOc1c(Cl)cc(Cl)cc1Cl)C(=O)n1ccnc1` the AC50 [1] was 50.1 µM [falling, partial curve, poor fit], the max response [2] was 17.3% and 17.4% and the max response [3] was -19.8% and -2.15%.
With `CC[n+]1c(-c2ccccc2)c2cc(N)ccc2c2ccc(N)cc21` the AC50 [1] was 28.2 µM [falling, partial curve, poor fit], the max response [2] was -2.74% and the AC50 [4, 5] was 1.26 µM [falling, full curve, poor fit] and 6.31 µM [falling, partial curve, poor fit]. The AC50 ([4]; measured here: 530 nm viability channel) was 1.26 µM [falling, full curve].
With `Oc1cc(Cl)cc(Cl)c1Cl` the AC50 [1] was 39.8 µM [falling, partial curve] and the max response [3] was 5.3%.
With `CC(C)(COCC1CO1)COCC1CO1` (stereo not given) the AC50 [1] was 50.1 µM [rising, single point] and the max response [2] was 39.9%.
For `COP(=O)(OC)Oc1ccc([N+](=O)[O-])cc1`, the AC50 [1] was 31.6 µM [falling, partial curve, poor fit], the max response [2] was -38.2% and the max response [3] was -9.1%.
In the case of `Cc1cc(Cl)ccc1OCC(=O)O`, the AC50 [1] is reported as 0.00126 µM [falling, full curve, poor fit] and the max response [2] is reported as 18.3%.
For `ClC=C(Cl)Cl`, the AC50 [1] was 0.0141 µM [falling, full curve, poor fit], the max response [2] was -15.3% and the AC50 [4, 5] was 25.1 µM [rising, single point].
For `O=P(Oc1ccccc1)(Oc1ccccc1)Oc1ccccc1`, the AC50 [1] was 31.6 µM [falling, partial curve, poor fit] and the max response [2] was 2.99%.
For `Clc1cc(Cl)c(-c2cc(Cl)c(Cl)cc2Cl)cc1Cl`, the AC50 [1] was 44.7 µM [rising, partial curve, poor fit], the max response [2] was 9.66% and 21.1% and the max response [3] was 12.5%.
With `CCCSP(=O)(OCC)Oc1ccc(Br)cc1Cl` (stereo not given) the AC50 [1] was 44.7 µM [falling, single point] and the max response [3] was -13%.
For `O=S(=O)(Cl)c1ccccc1`, the AC50 [1] was 50.1 µM [rising, single point] and the max response [2] was 35.5%.
For `Nc1ccc(-c2ccc(N)c(Cl)c2)cc1Cl`, the AC50 [1] was 44.7 µM [falling, partial curve, poor fit] and the max response [2] was 7.36% and 16.6%.
In the case of `Cc1ccc(OP(=O)(Oc2ccc(C)cc2)Oc2ccc(C)cc2)cc1`, the AC50 [1] is reported as 50.1 µM [rising, single point] and the max response [2] is reported as 1.29%.
For `CC(C)=C[C@@H]1[C@@H](C(=O)OCN2C(=O)C3=C(CCCC3)C2=O)C1(C)C`, the AC50 [1] was 3.55 µM [falling, partial curve, poor fit] and the max response [2] was 8.21%.
With `CC(C)(C)C(O)C(Oc1ccc(-c2ccccc2)cc1)n1cncn1` (stereo not given) the AC50 [1] was 35.5 µM [falling, partial curve, poor fit], the max response [2] was 38% and the max response [3] was -0.123%.
For `FC(F)(F)c1ccc(Cl)cc1`, the AC50 [1] was 0.00708 µM [falling, full curve, poor fit] and the max response [3] was -5.29%.
For `CS/C(C)=N/OC(=O)N(C)SN(C)C(=O)O/N=C(\C)SC`, the AC50 [1] was 0.00126 µM [falling, full curve, poor fit] and the max response [2] was 43%.
With `CC(C)N(C(=O)COc1nnc(C(F)(F)F)s1)c1ccc(F)cc1` the AC50 [1] was 39.8 µM [falling, partial curve, poor fit], the max response [2] was -2.82% and the max response [3] was 15.5%.
For `O=C(O)COc1ccccc1`, the AC50 [1] was 70.8 µM [rising, single point] and the max response [2] was 41.2%.
For `CCOC(=O)C(C)OC(=O)c1cc(Oc2ccc(C(F)(F)F)cc2Cl)ccc1[N+](=O)[O-]` (stereo not given), the AC50 [1] was 44.7 µM [falling, partial curve], the max response [2] was 20.8% and the max response [3] was 6.04%.
In the case of `CCOCN(C(=O)CCl)c1c(C)cccc1CC`, the AC50 [1] is reported as 20 µM [falling, partial curve, poor fit], the max response [2] is reported as 40.6% and 39.9% and the max response [3] is reported as 38.2% and 26.8%.
For `Oc1cc(Cl)c(Cl)cc1Cl`, the AC50 [1] was 44.7 µM [falling, partial curve, poor fit] and the max response [2] was -14%.
